Results are given in words; binding and its absence hold for the method and conditions named. For part of these data: Binding calls can cover weak binding; strength is not graded here.
What was measured:
[1] = target: cynomolgus CD3 protein (cynomolgus); assay: ELISA
[2] = target: mouse CD3 protein (mouse); assay: ELISA, plate coated with mouse CD3 protein

Binder	binding [1]	binding [2]
153A6B1 chimeric antibody (antibody, V domains shown) VH: QVQLKESGPGLVQPSQTLSLTCTVSGFSLTSYNIHWVRQPPGKGLEWMGRIRYNGDTSYNSALKSRLSISRDTSKNQVFLKMSSLQTDDTGTYYCTRGPYGGSREPLFDYWGQGVMVTVSS VL: DIKMTQSPSFLSAAVGDRVTINCKTSQNINKYLNWFQQKLGAAPKLLIYTTNNLQTGIPSRFSGSGSGTDFTLTISSLQPEDVATYFCLQHGSGYTFGAGTKLELK	binds	no binding (tested: starting from 15 µg/ml)
155A9B1 chimeric antibody (antibody, V domains shown) VH: QVQLKESGPGLVQPSQTLSLTCTVSGFSLTSYNVHWVRQPPGKGLEWMGRVRYNGDTSYNSALKSRLSISRDTSKNQAFLKMNSLQIDDTGTYYCTRGPYGGSSEPLFDYWGQGVMVTVSS VL: DIKMTQSPSFLSASVGDRVTINCKASQNINKYLNWFQQKLGEAPRLLIYTTNNLQTGIPSRFSGSGSGTDFTLTISSLQPEDVATYFCLQHNSGYTFGAGTKLELK	binds	no binding (tested: starting from 15 µg/ml)
192A7B9 chimeric antibody (antibody, V domains shown) VH: QVQLKESGPGLVQPSQTLSLNCTVSGFSLTSYNVHWVRQPPGKGLEWMGRMRYNGDTSYNSALKSRLSISRDTSKNQVFLKMNSLQTDDTGTYYCTRGPRGGYYSALFDYWGQGVMVTVSS VL: DIQMTQSPSFLSASVGDRVTINCKASQNINRYLNWYQQKLGDAPKVLISIANSLQTGIPSRFSGSGSGTDFTLTISSLQPEDVATYFCLQHNSWYTFGAGTKLELK	binds	no binding (tested: starting from 15 µg/ml)
